The list shows a part of the results.
Tests used:
Test in all cases: log2 fold change, soluble protein after heating vs DMSO (PISA); higher = thermal stabilisation; K562 lysate, 10 uM; active = over 0.2 and 3.5 SD of the protein, either way, in both replicates (recomputed)
ibrutinib = compound: C=CC(=O)N1CCC[C@@H](n2nc(-c3ccc(Oc4ccccc4)cc3)c3c(N)ncnc32)C1 [ibrutinib]
Method in brief: (§1)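 Following dounce homogenisation of K562 pellets in PBS pH 7.4 with 1 mM MgCl2, crude extract at 1 mg/mL protein was incubated for 30 min with 10 μM compound. Aliquots were then heated for 3 min over 48°C-58°C and pooled, NP-40 was added to 0.5% at 4°C, and soluble protein was recovered as the supernatant at 21,000xg for 90 min. Channel-sum-equalised TMTpro 16plex LC-MS/MS quantified this protein. Each value, from duplicates, is a log-two fold change in thermal stability relative to solvent controls.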

Sequences of proteins named here, by UniProt entry; tags and fusion partners are left off. A change or cut given only in a name is not applied to a line headed by its entry.
UniProt Q01082, whole entry, looked up: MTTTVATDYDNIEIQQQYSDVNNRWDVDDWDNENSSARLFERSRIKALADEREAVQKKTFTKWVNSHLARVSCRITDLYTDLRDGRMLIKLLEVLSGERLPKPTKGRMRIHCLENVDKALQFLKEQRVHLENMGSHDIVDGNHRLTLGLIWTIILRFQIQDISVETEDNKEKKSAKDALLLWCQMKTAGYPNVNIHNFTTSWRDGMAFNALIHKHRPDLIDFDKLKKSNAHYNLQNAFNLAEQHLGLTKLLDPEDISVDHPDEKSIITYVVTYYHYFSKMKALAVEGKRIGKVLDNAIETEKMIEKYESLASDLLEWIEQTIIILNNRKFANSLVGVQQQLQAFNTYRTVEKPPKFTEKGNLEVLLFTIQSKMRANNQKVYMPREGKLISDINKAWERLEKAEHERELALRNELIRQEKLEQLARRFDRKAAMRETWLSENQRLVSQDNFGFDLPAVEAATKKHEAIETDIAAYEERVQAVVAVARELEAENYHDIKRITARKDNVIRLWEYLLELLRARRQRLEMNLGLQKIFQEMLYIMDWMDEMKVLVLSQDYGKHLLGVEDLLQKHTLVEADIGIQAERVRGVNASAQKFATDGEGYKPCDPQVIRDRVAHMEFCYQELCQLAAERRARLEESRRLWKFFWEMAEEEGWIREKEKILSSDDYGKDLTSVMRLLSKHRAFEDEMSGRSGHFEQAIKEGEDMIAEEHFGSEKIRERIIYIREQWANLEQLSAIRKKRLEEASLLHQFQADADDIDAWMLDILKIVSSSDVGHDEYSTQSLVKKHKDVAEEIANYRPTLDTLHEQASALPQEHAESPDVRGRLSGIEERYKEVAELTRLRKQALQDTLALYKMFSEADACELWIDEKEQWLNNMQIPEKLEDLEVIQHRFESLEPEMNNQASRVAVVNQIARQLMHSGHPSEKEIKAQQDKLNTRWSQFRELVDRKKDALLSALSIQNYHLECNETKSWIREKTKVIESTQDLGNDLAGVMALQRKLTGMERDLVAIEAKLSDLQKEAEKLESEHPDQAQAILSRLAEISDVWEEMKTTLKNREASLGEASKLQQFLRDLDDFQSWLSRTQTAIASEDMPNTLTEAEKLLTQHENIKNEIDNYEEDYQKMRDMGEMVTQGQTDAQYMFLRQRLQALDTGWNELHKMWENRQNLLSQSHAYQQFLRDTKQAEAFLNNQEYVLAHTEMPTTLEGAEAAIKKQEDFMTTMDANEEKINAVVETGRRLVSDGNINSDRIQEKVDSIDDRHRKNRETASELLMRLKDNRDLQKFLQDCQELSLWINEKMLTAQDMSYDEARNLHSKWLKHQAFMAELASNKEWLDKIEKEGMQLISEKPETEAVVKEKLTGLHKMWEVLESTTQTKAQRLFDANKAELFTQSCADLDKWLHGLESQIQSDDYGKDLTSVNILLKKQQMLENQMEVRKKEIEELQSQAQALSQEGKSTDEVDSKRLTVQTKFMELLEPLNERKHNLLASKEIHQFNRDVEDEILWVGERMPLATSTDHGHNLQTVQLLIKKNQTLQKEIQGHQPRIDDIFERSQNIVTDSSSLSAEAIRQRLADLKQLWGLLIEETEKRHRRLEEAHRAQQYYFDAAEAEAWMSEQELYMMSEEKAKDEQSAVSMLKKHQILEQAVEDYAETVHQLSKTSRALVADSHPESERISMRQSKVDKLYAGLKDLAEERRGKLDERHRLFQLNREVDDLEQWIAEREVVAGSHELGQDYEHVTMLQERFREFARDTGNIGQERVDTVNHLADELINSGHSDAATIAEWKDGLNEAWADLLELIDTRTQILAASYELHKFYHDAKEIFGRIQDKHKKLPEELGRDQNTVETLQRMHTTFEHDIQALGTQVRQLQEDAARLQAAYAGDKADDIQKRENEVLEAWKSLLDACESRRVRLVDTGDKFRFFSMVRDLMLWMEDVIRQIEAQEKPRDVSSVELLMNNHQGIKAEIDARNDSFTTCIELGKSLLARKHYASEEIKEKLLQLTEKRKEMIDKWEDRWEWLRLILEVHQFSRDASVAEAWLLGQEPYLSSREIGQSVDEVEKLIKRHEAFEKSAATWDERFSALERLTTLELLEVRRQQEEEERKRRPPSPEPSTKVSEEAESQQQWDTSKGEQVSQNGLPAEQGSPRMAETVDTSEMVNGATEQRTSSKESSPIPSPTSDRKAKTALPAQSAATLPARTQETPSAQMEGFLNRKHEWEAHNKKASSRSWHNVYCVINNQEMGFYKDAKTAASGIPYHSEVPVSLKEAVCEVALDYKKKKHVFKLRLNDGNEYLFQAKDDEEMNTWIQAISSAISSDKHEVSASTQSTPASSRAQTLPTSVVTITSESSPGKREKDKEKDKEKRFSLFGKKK
UniProt Q9NQZ5: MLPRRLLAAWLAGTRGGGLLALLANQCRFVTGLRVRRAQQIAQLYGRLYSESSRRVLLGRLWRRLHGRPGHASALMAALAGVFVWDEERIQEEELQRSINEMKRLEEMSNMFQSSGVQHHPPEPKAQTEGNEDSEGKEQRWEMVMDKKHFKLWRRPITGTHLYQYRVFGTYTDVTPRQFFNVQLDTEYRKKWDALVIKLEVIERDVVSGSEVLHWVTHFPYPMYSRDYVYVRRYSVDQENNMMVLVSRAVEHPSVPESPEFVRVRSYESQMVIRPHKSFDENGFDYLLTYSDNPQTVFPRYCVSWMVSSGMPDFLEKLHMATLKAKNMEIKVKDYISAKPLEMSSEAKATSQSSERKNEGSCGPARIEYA
UniProt Q16385, whole entry, looked up: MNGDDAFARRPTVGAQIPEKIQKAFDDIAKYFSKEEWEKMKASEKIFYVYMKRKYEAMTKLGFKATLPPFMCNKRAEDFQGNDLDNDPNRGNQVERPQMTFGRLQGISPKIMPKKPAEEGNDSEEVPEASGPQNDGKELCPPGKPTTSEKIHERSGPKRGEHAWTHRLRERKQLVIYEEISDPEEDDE
UniProt O95772: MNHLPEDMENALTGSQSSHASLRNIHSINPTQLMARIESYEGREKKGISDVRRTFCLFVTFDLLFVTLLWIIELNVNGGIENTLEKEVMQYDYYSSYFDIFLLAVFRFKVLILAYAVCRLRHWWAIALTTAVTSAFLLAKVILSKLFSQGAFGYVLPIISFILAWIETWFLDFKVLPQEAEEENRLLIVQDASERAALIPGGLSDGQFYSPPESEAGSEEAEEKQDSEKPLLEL
UniProt Q8NB90: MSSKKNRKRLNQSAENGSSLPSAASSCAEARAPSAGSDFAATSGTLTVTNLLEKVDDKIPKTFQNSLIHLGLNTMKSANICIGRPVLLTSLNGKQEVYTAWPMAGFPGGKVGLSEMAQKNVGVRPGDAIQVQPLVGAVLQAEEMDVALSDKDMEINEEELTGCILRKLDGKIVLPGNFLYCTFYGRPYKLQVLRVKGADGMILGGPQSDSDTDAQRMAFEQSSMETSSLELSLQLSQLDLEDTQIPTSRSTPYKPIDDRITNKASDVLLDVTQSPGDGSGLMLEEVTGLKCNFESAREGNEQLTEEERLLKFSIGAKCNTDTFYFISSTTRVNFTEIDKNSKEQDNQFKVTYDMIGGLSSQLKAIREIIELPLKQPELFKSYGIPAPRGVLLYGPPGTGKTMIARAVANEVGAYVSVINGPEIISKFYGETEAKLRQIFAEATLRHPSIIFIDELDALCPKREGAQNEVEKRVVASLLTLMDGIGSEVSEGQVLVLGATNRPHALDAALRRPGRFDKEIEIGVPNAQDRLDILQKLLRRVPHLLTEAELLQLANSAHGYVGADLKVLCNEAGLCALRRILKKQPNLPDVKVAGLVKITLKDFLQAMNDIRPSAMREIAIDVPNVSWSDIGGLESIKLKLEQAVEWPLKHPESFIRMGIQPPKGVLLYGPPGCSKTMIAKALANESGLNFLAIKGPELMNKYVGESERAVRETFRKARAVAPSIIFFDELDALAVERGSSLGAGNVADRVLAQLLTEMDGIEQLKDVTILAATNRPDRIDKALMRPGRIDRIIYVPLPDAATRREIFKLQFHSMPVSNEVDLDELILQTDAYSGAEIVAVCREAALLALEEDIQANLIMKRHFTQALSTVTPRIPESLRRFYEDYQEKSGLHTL
UniProt Q92783: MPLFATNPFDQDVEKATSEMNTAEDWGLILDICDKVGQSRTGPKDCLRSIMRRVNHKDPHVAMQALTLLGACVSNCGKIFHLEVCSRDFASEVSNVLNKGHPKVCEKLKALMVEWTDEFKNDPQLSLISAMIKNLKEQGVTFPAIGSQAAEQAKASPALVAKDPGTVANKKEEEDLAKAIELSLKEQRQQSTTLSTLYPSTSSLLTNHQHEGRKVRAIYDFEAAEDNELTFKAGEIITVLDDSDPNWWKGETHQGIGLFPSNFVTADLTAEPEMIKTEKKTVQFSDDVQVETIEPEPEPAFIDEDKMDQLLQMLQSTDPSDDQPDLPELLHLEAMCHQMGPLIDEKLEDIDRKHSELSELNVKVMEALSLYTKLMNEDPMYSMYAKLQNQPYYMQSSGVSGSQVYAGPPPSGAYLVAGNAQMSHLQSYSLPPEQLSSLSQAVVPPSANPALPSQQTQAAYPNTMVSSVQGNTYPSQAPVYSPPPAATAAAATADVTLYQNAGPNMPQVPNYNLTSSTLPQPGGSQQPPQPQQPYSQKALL
UniProt P84103: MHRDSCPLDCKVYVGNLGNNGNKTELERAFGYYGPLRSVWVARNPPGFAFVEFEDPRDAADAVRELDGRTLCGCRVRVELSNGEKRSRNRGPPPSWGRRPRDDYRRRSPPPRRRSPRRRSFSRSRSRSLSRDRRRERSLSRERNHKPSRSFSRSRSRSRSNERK
UniProt Q08945, whole entry, looked up: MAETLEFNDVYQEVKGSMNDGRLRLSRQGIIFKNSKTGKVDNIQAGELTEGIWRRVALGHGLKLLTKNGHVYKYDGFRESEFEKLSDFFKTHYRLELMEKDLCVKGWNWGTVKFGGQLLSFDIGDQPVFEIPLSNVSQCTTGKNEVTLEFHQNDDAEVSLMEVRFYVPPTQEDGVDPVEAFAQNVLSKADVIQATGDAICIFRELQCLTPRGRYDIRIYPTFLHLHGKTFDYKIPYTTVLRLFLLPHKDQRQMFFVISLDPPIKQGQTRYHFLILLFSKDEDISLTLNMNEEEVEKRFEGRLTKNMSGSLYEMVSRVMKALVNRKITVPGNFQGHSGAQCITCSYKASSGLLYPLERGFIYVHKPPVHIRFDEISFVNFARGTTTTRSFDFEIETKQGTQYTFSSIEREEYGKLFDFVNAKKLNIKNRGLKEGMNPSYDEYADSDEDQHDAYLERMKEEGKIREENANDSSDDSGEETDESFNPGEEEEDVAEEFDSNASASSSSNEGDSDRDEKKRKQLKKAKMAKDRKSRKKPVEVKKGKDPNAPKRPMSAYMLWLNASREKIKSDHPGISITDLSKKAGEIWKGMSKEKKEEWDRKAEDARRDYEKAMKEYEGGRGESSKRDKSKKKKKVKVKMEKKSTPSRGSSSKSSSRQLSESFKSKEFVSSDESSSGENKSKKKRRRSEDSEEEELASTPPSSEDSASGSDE
UniProt Q8N5C6: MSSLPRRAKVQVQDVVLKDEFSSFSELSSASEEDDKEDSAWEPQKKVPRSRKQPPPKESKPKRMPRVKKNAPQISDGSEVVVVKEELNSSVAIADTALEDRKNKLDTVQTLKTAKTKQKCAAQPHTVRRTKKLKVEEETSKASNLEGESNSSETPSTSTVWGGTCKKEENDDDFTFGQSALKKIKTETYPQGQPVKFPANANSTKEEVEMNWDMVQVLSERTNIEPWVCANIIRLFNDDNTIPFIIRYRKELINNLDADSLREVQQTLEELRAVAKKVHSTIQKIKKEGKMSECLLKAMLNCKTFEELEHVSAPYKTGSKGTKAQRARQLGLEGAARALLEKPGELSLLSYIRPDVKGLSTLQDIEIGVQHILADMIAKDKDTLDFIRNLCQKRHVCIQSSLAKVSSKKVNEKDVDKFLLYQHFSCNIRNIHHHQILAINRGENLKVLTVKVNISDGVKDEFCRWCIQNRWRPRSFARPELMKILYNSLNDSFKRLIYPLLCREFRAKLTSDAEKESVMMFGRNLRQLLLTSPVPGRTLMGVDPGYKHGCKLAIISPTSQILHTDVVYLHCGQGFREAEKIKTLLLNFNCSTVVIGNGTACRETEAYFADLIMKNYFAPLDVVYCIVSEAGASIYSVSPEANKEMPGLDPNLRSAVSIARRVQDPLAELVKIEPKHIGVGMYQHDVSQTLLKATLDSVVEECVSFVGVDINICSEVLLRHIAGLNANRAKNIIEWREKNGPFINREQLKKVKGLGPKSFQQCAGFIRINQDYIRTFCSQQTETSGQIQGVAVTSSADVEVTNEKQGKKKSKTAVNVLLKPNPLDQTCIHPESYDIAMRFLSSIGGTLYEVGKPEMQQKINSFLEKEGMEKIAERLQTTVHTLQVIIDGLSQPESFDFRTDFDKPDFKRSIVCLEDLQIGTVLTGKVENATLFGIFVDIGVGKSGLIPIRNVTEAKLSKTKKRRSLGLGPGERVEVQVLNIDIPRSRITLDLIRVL

[1] = compound: CC(=O)c1cnc2ccc(-c3cc(Cl)c(O)c(Cl)c3)nc2c1N[C@H]1CC[C@H](CN(C)C)CC1
Method in brief: as §1

ralimetinib = compound: CC(C)(C)Cn1c(N)nc2ccc(-c3[nH]c(C(C)(C)C)nc3-c3ccc(F)cc3)nc21 [ralimetinib]
Method in brief: as §1

[2] = compound: CC(C)(O)CC(=O)NCCn1ccc2ncnc(Nc3ccc(Oc4cccc(C(F)(F)F)c4)c(Cl)c3)c21
Method in brief: as §1

[3] = compound: CC(C)C1=C2N=C(C=C(N2N=C1)NCC3=CC=CC=C3)NCCCCCCN
Method in brief: as §1

[4] = compound: CC1=C(C(CC(=O)N1)C2=CC=C(C=C2)C(F)(F)F)C(=O)NC3=C(C=C4C(=C3)C=NN4)F
Method in brief: as §1

[5] = compound: CC1=C(C2=C(C=C1)C(=O)C3=CC=CC=C3N2CCCN)C
Method in brief: as §1

[6] = compound: CC1=C(C=C(C=C1)NC(=O)C2=CC(=CC=C2)C(C)(C)C#N)NC3=CC4=C(C=C3)N=CN(C4=O)C
Method in brief: as §1

[7] = compound: CC1=C(C=C(C=C1)NC(=O)C2=CC(=CC=C2)N(C)C)NC(=O)C3=CC=C(C=C3)O
Method in brief: as §1

[8] = compound: CC1=CC=C(C=C1)SC2=C3C=C(SC3=CN=C2)C(=O)N
Method in brief: as §1

vemurafenib = compound: CCCS(=O)(=O)Nc1ccc(F)c(C(=O)c2c[nH]c3ncc(-c4ccc(Cl)cc4)cc23)c1F [vemurafenib]
Method in brief: as §1

[9] = compound: CCCS(=O)(=O)Nc1ccc(F)c(C(=O)c2c[nH]c3ncc(Cl)cc23)c1F
Method in brief: as §1

barasertib = compound: CCN(CCCOc1ccc2c(Nc3cc(CC(=O)Nc4cccc(F)c4)[nH]n3)ncnc2c1)CCOP(=O)(O)O [barasertib]
Method in brief: as §1

[10] = compound: CC[C@@H]1C(=O)N(C)c2cnc(Nc3ccc(C(=O)NC4CCN(C)CC4)cc3OC)nc2N1C1CCCC1
Method in brief: as §1

volasertib = compound: CC[C@@H]1C(=O)N(C)c2cnc(Nc3ccc(C(=O)N[C@H]4CC[C@H](N5CCN(CC6CC6)CC5)CC4)cc3OC)nc2N1C(C)C [volasertib]
Method in brief: as §1

[11] = compound: CCn1c(C(=O)N(C2CC2)C2CC2)cc2c3c(ncn3C)c(Nc3cc(C)n(C)n3)nc21
Method in brief: as §1

[12] = compound: CCn1cc(-c2ccnc3[nH]c(-c4cccc(CN(C)C)c4)cc23)c(-c2ccc(NC(=O)N(C)C)cc2)n1
Method in brief: as §1

[13] = compound: CN1CCC(CNc2ccc3ncc(-c4cccc(OC(F)(F)F)c4)n3n2)CC1
Method in brief: as §1

saracatinib = compound: CN1CCN(CCOc2cc(OC3CCOCC3)c3c(Nc4c(Cl)ccc5c4OCO5)ncnc3c2)CC1 [saracatinib]
Method in brief: as §1

sotrastaurin = compound: CN1CCN(c2nc(C3=C(c4c[nH]c5ccccc45)C(=O)NC3=O)c3ccccc3n2)CC1 [sotrastaurin]
Method in brief: as §1

Measured: log2 fold change

SPTBN1 (UniProt Q01082)
inactive: ibrutinib -0.002 | [1] -0.002 | ralimetinib 0.008 | [2] -0.023 | [3] -0.011 | [4] -0.003 | [5] 0.006 | [6] -0.004 | [7] 0.008 | [8] 0.011 | vemurafenib 0.007 | [9] 0.018 | barasertib 0.022 | [10] 0 | volasertib -0.03 | [11] -0.006 | [12] -0.024 | [13] -0.022 | saracatinib 0.031 | sotrastaurin -0.008

SRP72 (UniProt O76094)
inactive: ibrutinib -0.027 | [1] -0.009 | ralimetinib 0.021 | [2] 0.02 | [3] 0.005 | [4] 0.003 | [5] -0.055 | [6] -0.011 | [7] -0.001 | [8] 0.017 | vemurafenib 0.019 | [9] 0.027 | barasertib 0.013 | [10] 0.01 | volasertib -0.017 | [11] -0.012 | [12] -0.018 | [13] -0.074 | saracatinib 0.018 | sotrastaurin 0.011

STARD7 (UniProt Q9NQZ5)
inactive: ibrutinib 0.027 | [1] -0.043 | ralimetinib 0.02 | [2] -0.021 | [3] -0.004 | [4] -0.024 | [5] -0.052 | [6] 0.005 | [7] 0.016 | [8] -0.042 | vemurafenib 0 | [9] 0.005 | barasertib 0.005 | [10] -0.021 | volasertib 0.046 | [11] -0.025 | [12] 0.092 | [13] 0.001 | saracatinib -0.016 | sotrastaurin 0.027

STAT1 (UniProt P42224)
inactive: ibrutinib -0.002 | [1] -0.026 | ralimetinib 0.03 | [2] 0.006 | [3] -0.002 | [4] 0 | [5] 0.029 | [6] 0.014 | [7] 0.039 | [8] 0.006 | vemurafenib -0.016 | [9] 0.018 | barasertib 0.058 | [10] -0.058 | volasertib -0.078 | [11] 0.012 | [12] -0.071 | [13] -0.01 | saracatinib 0.021 | sotrastaurin 0.03

SSX2 (UniProt Q16385)
inactive: ibrutinib 0.057 | [1] 0.058 | ralimetinib 0.036 | [2] 0.058 | [3] 0.01 | [4] -0.015 | [5] 0.004 | [6] -0.02 | [7] -0.036 | [8] -0.045 | vemurafenib 0.002 | [9] 0.043 | barasertib 0.024 | [10] -0.016 | volasertib -0.025 | [11] 0.098 | [12] -0.016 | [13] 0.037 | saracatinib 0.039 | sotrastaurin 0.038

STARD3NL (UniProt O95772)
inactive: ibrutinib -0.002 | [1] 0.004 | ralimetinib 0.02 | [2] -0.034 | [3] -0.031 | [4] -0.032 | [5] 0.024 | [6] 0.028 | [7] 0.061 | [8] -0.058 | vemurafenib 0.046 | [9] 0.01 | barasertib 0.002 | [10] 0 | volasertib 0.015 | [11] 0.06 | [12] -0.218 | [13] 0.188 | saracatinib 0.013 | sotrastaurin 0.027

SPATA5 (UniProt Q8NB90)
inactive: ibrutinib 0.013 | [1] -0.002 | ralimetinib 0.047 | [2] 0.025 | [3] 0.02 | [4] -0.009 | [5] 0.009 | [6] 0.002 | [7] 0.042 | [8] 0.012 | vemurafenib 0.015 | [9] 0.005 | barasertib 0.02 | [10] -0.021 | volasertib -0.068 | [11] 0.011 | [12] -0.024 | [13] -0.052 | saracatinib -0.001 | sotrastaurin 0.007

SRRM2 (UniProt Q9UQ35)
inactive: ibrutinib 0.07 | [1] -0.02 | ralimetinib 0.022 | [2] -0.024 | [3] 0.024 | [4] -0.003 | [5] -0.008 | [6] 0.05 | [7] 0.01 | [8] -0.011 | vemurafenib 0.01 | [9] -0.015 | barasertib -0.015 | [10] 0.056 | volasertib 0.015 | [11] -0.013 | [12] -0.043 | [13] 0.04 | saracatinib -0.002 | sotrastaurin 0.011

2 entries picked at random from the list so far:
STARD3NL (UniProt O95772)
inactive: ibrutinib -0.002 | [1] 0.004 | ralimetinib 0.02 | [2] -0.034 | [3] -0.031 | [4] -0.032 | [5] 0.024 | [6] 0.028 | [7] 0.061 | [8] -0.058 | vemurafenib 0.046 | [9] 0.01 | barasertib 0.002 | [10] 0 | volasertib 0.015 | [11] 0.06 | [12] -0.218 | [13] 0.188 | saracatinib 0.013 | sotrastaurin 0.027

SRRM2 (UniProt Q9UQ35)
inactive: ibrutinib 0.07 | [1] -0.02 | ralimetinib 0.022 | [2] -0.024 | [3] 0.024 | [4] -0.003 | [5] -0.008 | [6] 0.05 | [7] 0.01 | [8] -0.011 | vemurafenib 0.01 | [9] -0.015 | barasertib -0.015 | [10] 0.056 | volasertib 0.015 | [11] -0.013 | [12] -0.043 | [13] 0.04 | saracatinib -0.002 | sotrastaurin 0.011

Later entries.

STAG2 isoform 2 (UniProt Q8N3U4)
inactive: ibrutinib -0.015 | [1] -0.011 | ralimetinib -0.003 | [2] -0.023 | [3] -0.025 | [4] -0.009 | [5] -0.002 | [6] -0.01 | [7] 0.01 | [8] 0 | vemurafenib -0.001 | [9] 0.001 | barasertib -0.019 | [10] 0.007 | volasertib -0.016 | [11] -0.001 | [12] 0.016 | [13] -0.026 | saracatinib -0.021 | sotrastaurin 0.022

SQLE (UniProt Q14534)
inactive: ibrutinib 0.028 | [1] 0.051 | ralimetinib 0.081 | [2] -0.047 | [3] 0 | [4] -0.02 | [5] -0.006 | [6] 0.039 | [7] -0.06 | [8] -0.027 | vemurafenib 0.036 | [9] -0.01 | barasertib 0.103 | [10] 0.051 | volasertib 0.073 | [11] -0.063 | [12] -0.06 | [13] -0.02 | saracatinib 0.077 | sotrastaurin 0.065

STAM (UniProt Q92783)
inactive: ibrutinib -0.008 | [1] -0.009 | ralimetinib -0.018 | [2] 0.032 | [3] -0.003 | [4] -0.001 | [5] 0.007 | [6] -0.005 | [7] -0.012 | [8] -0.021 | vemurafenib 0.002 | [9] -0.022 | barasertib -0.036 | [10] 0.013 | volasertib 0.036 | [11] 0.029 | [12] -0.028 | [13] 0.039 | saracatinib 0.005 | sotrastaurin 0.004

SRSF3 (UniProt P84103)
inactive: ibrutinib 0.027 | [1] -0.008 | ralimetinib -0.022 | [2] -0.012 | [3] 0.035 | [4] 0.024 | [5] 0.001 | [6] -0.022 | [7] 0.009 | [8] 0.017 | vemurafenib -0.06 | [9] -0.013 | barasertib 0.012 | [10] -0.117 | volasertib 0.007 | [11] -0.025 | [12] 0.018 | [13] 0.047 | saracatinib -0.03 | sotrastaurin -0.058

SRCAP (UniProt Q6ZRS2)
inactive: ibrutinib -0.023 | [1] -0.003 | ralimetinib 0.078 | [2] 0.015 | [3] -0.04 | [4] 0.051 | [5] 0.007 | [6] -0.005 | [7] 0.017 | [8] -0.003 | vemurafenib -0.003 | [9] -0.004 | barasertib 0.004 | [10] 0.009 | volasertib 0 | [11] 0.034 | [12] 0.035 | [13] 0.034 | saracatinib 0.057 | sotrastaurin -0.004

SSRP1 (UniProt Q08945)
inactive: ibrutinib -0.003 | [1] -0.001 | ralimetinib 0.031 | [2] 0.034 | [3] -0.017 | [4] -0.022 | [5] -0.071 | [6] 0.001 | [7] 0.026 | [8] 0.009 | vemurafenib -0.008 | [9] 0.003 | barasertib 0.019 | [10] -0.036 | volasertib -0.017 | [11] 0.004 | [12] 0.007 | [13] -0.015 | saracatinib 0.026 | sotrastaurin 0.008

SRBD1 (UniProt Q8N5C6)
inactive: ibrutinib -0.057 | [1] -0.012 | ralimetinib 0.02 | [2] -0.094 | [3] 0 | [4] -0.05 | [5] -0.057 | [6] 0.041 | [7] -0.022 | [8] 0.056 | vemurafenib 0.109 | [9] -0.001 | barasertib 0.07 | [10] 0.048 | volasertib 0.056 | [11] 0.019 | [12] -0.089 | [13] 0.12 | saracatinib 0.033 | sotrastaurin -0.078

SREBF2 (UniProt Q12772)
inactive: ibrutinib -0.003 | [1] 0.004 | ralimetinib -0.014 | [2] -0.026 | [3] 0.004 | [4] -0.038 | [5] 0.093 | [6] 0.16 | [7] -0.051 | [8] -0.027 | vemurafenib -0.067 | [9] -0.038 | barasertib 0.036 | [10] -0.122 | volasertib 0 | [11] 0.024 | [12] 0.183 | [13] 0.05 | saracatinib -0.078 | sotrastaurin -0.064

— the supplement of paper PMC10849652
